# Measured values: article PMC7819943, “Rice protein-binding microarrays: a tool to detect cis-acting elements near promoter regions in rice”
# The other results are listed elsewhere or left out.
# Target: T1, OsSMF1 (Oryza sativa, UniProt Q6ZLB0 1-436)
# T1 sequence: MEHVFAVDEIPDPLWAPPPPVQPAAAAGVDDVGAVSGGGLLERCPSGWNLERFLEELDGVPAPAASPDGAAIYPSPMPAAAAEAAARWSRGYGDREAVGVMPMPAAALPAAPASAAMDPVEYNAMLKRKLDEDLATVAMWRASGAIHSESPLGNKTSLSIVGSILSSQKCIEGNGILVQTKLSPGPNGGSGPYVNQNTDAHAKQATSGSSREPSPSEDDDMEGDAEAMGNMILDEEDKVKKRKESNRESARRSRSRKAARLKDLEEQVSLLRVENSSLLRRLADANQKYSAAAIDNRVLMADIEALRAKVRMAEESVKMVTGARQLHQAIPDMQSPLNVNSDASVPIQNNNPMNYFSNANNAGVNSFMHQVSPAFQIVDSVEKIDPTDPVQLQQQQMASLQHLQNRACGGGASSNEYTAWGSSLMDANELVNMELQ
# Assay: protein-binding microarray (RPBM); PBS, 2% BSA, 51.3 ng/ul salmon testes DNA, 50 uM zinc acetate, 200 nM TF, 25 C, 1 h; high values mean tight binding
# Settings: protein: recombinant; tags: N-terminal polyhistidine and DsRed monomer fusion (pET32a); chain copies: 2; label: CyDye5-dUTP incorporated in the synthesized complementary strand; 3' TTTTT single-stranded linker to array surface; dsDNA, one strand shown
# How it was run: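 Transcription factors were made in E. coli BL21-CodonPlus as N-terminal fusions to a polyhistidine tag and DsRed, then purified on Ni–NTA. After primer extension with Cy5-dUTP and blocking with 2% BSA, a custom Agilent array was exposed for 1 h at 25 °C to 200 nM protein in PBS, 2% BSA, salmon testes DNA and 50 µM zinc acetate. Washed arrays were scanned on an Axon 4000B, and the binding signal is per-feature fluorescence intensity in arbitrary units.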
row,Sequence,binding signal
1,GCGCGGCCATCGCGGCGCACCCGGAGCCGGGATCCTACGCCGGAGTCACCTAGTGCAG,4510 fluorescence intensity (a.u.)
2,TGGTGTGTGCTTGCTGCTGCTGCTGCTTCAGTTCTCGAGTCGGAGTCACCTAGTGCAG,5480 fluorescence intensity (a.u.)
3,ACACATTAGTTTGGTGATATCAGCTGGCTGTATCTATCTTCGGAGTCACCTAGTGCAG,3590 fluorescence intensity (a.u.)
4,TCTCCCTTGGCGGCAAGCCACGTACTCCCTCCATCATTTACGGAGTCACCTAGTGCAG,5620 fluorescence intensity (a.u.)
5,GGTCCGGTGTGACACTGTGACCCCGCCGTAACCCCGTAACCGGAGTCACCTAGTGCAG,4060 fluorescence intensity (a.u.)
6,GGAGAGAGAAATAGTTGTGTAAGTACGGTTCTACCCTTTGCGGAGTCACCTAGTGCAG,5640 fluorescence intensity (a.u.)
7,TATCTGAACTCTTGACGTGTTATGAACTCTCGTAGGACCTCGGAGTCACCTAGTGCAG,6790 fluorescence intensity (a.u.)
8,CCGCCATTGCGTGTTTTCCTACGCAACCTTTGTCTATAAACGGAGTCACCTAGTGCAG,5370 fluorescence intensity (a.u.)
9,ACCGCCGCTGCCTCCTCTTGTCACCCCACGCCACAGCGATCGGAGTCACCTAGTGCAG,3660 fluorescence intensity (a.u.)
10,GTTGTTGCTGAGTTTCTCTCTGTGTCAGATAGTAGCCGTTCGGAGTCACCTAGTGCAG,3900 fluorescence intensity (a.u.)
11,AGTACATTAAATCGGCACAAGATATGATTACGTGTGTTATCGGAGTCACCTAGTGCAG,5070 fluorescence intensity (a.u.)
12,CCCCACCGACGGCGTGCAAAGCGGCCACCCAGCTCGACGCCGGAGTCACCTAGTGCAG,8120 fluorescence intensity (a.u.)
13,TGCGGCAGATGGGGAGAGCTCTCGGCGTGTCCACGTAGGACGGAGTCACCTAGTGCAG,8780 fluorescence intensity (a.u.)
14,CCCTCCGCCGTTGCTGCCGCGCTCGACGTCATTGTCGCCACGGAGTCACCTAGTGCAG,6520 fluorescence intensity (a.u.)
15,TGTGGCATGCCACATACACGCCACGTAGGATCCTGAAGGGCGGAGTCACCTAGTGCAG,18000 fluorescence intensity (a.u.)
16,TGTTGGTGAGCCTACAGTTCATGACGATGCTGGCCAGATGCGGAGTCACCTAGTGCAG,3480 fluorescence intensity (a.u.)
17,TTGCGCGCGCCACCGCCACCGCAACCGCCGCCGCAATGTCCGGAGTCACCTAGTGCAG,3990 fluorescence intensity (a.u.)
18,ATGTCGAAAGGCCTATATGGGCCAGATGATGTGTCCAGGGCGGAGTCACCTAGTGCAG,34600 fluorescence intensity (a.u.)
19,CTATTAGAATATTTTATAATAGTTAATAGTTAATTAATTACGGAGTCACCTAGTGCAG,39700 fluorescence intensity (a.u.)
20,ACCTGATGAAACAATATCAAAACAAAGATATATATGCATACGGAGTCACCTAGTGCAG,3290 fluorescence intensity (a.u.)
21,CAGTATCGCTAATTAATGACATCAACACTAATCAGCGTTGCGGAGTCACCTAGTGCAG,3190 fluorescence intensity (a.u.)

# 2 successive entries already listed, quoted:
row,Sequence,binding signal
16,TGTTGGTGAGCCTACAGTTCATGACGATGCTGGCCAGATGCGGAGTCACCTAGTGCAG,3480 fluorescence intensity (a.u.)
17,TTGCGCGCGCCACCGCCACCGCAACCGCCGCCGCAATGTCCGGAGTCACCTAGTGCAG,3990 fluorescence intensity (a.u.)

# Later entries

row,Sequence,binding signal
1,CCGACAGGCGCGTCGCCGCCACGCGCGCCCCGGACCCGGCCGGAGTCACCTAGTGCAG,4200 fluorescence intensity (a.u.)
2,AGTAAATCCACATCAACAGCATTCTGTTGTTAACTCTGCCCGGAGTCACCTAGTGCAG,6820 fluorescence intensity (a.u.)
3,TTAATAGTACATAGTTAAAAGTTAACTCAGTGTTGTACAACGGAGTCACCTAGTGCAG,3230 fluorescence intensity (a.u.)
4,TAGCCACAGTTTTGCTGACGTTCTCTTTTATCTGTTTGCTCGGAGTCACCTAGTGCAG,6320 fluorescence intensity (a.u.)
5,GTGTTATTGTGTACTTTAACGTTGATTATATGACTGGACCCGGAGTCACCTAGTGCAG,6470 fluorescence intensity (a.u.)
6,CACCCGACTCAGATACCCGAATCCACGTCAGCCCAGAGCCCGGAGTCACCTAGTGCAG,14300 fluorescence intensity (a.u.)
7,GATTTTGTCCTATGTGGCTGCTGACTCAGCGTGGGACCCACGGAGTCACCTAGTGCAG,30200 fluorescence intensity (a.u.)
8,AGACCGCTCGCGCGTACGTGACGCGATCGGGCAGCGCGGGCGGAGTCACCTAGTGCAG,4060 fluorescence intensity (a.u.)
9,GTACGTGCATGTATTTATAGGGATGAGTGTGCACGTGTTGCGGAGTCACCTAGTGCAG,4370 fluorescence intensity (a.u.)
10,CTCGCGTAAGCAATGACGCAAGGCAATAGCAGCCACAGACCGGAGTCACCTAGTGCAG,5640 fluorescence intensity (a.u.)
11,CACAGCCTAAGTATGCATATAAATGAGATAAACTATTAATCGGAGTCACCTAGTGCAG,21200 fluorescence intensity (a.u.)
12,CTAGATTTATTAATATCGATATGAATGTGGAAAATGCTAGCGGAGTCACCTAGTGCAG,18100 fluorescence intensity (a.u.)
13,CACTCTTCTCATCTTCCTCGGCTGACACTTCTTAGGGTAGCGGAGTCACCTAGTGCAG,3320 fluorescence intensity (a.u.)
14,AATTTAGCTCCAATTATGTCCAACTCATCTATAACTTACTCGGAGTCACCTAGTGCAG,3300 fluorescence intensity (a.u.)
15,ATATGACCAAAGTATAGGACTCCATCGACATGTGATTAATCGGAGTCACCTAGTGCAG,3420 fluorescence intensity (a.u.)
16,GGCCTCAGTACAGCACAAGCTCTCCACTATACTGTAGTAGCGGAGTCACCTAGTGCAG,3180 fluorescence intensity (a.u.)
17,GCCAGCCACTGGCTAAACGCCTAGTTGTGAAGAGAGAACGCGGAGTCACCTAGTGCAG,3290 fluorescence intensity (a.u.)
18,GGCATGGCACCATATTATTTGCTTGAGGATTATTGTTTAGCGGAGTCACCTAGTGCAG,8510 fluorescence intensity (a.u.)
19,AATTAATATGTCATTAGCACATATAGGTTACTATAGAACTCGGAGTCACCTAGTGCAG,3640 fluorescence intensity (a.u.)
20,TTAACAGAAACACATGCATTAATATGTGGCAGCATAGATGCGGAGTCACCTAGTGCAG,4810 fluorescence intensity (a.u.)
21,GTAGCACTGTCGTCACCCGGCGCTGGATGGAGTCCGGCCCCGGAGTCACCTAGTGCAG,3830 fluorescence intensity (a.u.)
